From doi:10.1101/2021.08.02.453806

What was measured:
[1] = target: 10xHIS-MBP-3C-NRDE2ΔN (human); assay: pull-down
[2] = target: MBP-PPM-1.D-10xHIS (C. elegans); assay: pull-down

B1: GST-CHK-2-3xFLAG (enzyme, UniProt Q9U1Y5 1-476)
chain: MVRGTKRRRSSAEKPIVVVPVTRDDTMPVDEDLVVGESQCAASKPFAKLVGVRRGISSIDLADDHFVCGRGSDDAPTNFNFSQVAKDVGLYRFISKIQFSIDRDTETRRIYLHDHSRNGTLVNQEMIGKGLSRELMNGDLISIGIPALIIFVYESADADHHPEELTKKYHVTSHSLGKGGFGKVLLGYKKSDRSVVAIKQLNTQFSTRCSRAIAKTRDIRNEVEVMKKLSHPNIVAIYDWITVAKYSYMVIEYVGGGEFFSKVVDSKYNRMGLGESLGKYFAFQLIDAILYLHSVGICHRDIKPENILCSDKAERCILKLTDFGMAKNSVNRMKTRCGTPSYNAPEIVANEGVEYTPKVDIWSLGCVLFITFSGYPPFSEEYTDMTMDEQVLTGRLIFHAQWRRITVETQNMIKWMLTVEPSNRPSAVELMSTQWMKCADCRTAKQDILKSIKPISAAAPAALQTTQAGPVKKAKM
With B1 the binding [1] was “no binding” and the binding [2] was “binds”.

No constants are given. Whether binding was seen depends on the method and setting. In cells and extracts the contact can be indirect. For some assays here: Binding calls can cover weak binding; strength is not graded here. Tags and fused reporters may be left off the sequences shown.
